Binding data for five substances are collected here from paper doi:10.1101/2025.11.23.689998.

Chains of the proteins cited; added tags and fusions are not shown. A line that says so, or that is headed by a name, gives the form on record, which may keep a tag or linker. Residues count along the entry.
UniProt Q9ZV07: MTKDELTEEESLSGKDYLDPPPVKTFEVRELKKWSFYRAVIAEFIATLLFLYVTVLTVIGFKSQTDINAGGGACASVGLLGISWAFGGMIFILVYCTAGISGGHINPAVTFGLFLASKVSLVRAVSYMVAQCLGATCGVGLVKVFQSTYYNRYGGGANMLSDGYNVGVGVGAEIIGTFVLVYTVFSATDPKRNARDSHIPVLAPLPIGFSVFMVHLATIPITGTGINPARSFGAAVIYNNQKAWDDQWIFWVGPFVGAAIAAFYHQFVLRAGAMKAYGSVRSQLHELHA
UniProt Q8GYA4, residues 348-634: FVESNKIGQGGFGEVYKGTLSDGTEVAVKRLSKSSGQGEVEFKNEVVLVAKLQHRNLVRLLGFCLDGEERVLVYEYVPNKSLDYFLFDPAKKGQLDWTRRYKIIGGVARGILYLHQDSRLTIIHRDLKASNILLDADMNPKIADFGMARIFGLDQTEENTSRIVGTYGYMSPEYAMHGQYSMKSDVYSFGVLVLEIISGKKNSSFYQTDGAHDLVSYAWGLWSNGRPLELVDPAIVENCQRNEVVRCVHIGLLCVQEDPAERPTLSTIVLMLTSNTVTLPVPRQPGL
UniProt Q9SCZ4, residues 470-895: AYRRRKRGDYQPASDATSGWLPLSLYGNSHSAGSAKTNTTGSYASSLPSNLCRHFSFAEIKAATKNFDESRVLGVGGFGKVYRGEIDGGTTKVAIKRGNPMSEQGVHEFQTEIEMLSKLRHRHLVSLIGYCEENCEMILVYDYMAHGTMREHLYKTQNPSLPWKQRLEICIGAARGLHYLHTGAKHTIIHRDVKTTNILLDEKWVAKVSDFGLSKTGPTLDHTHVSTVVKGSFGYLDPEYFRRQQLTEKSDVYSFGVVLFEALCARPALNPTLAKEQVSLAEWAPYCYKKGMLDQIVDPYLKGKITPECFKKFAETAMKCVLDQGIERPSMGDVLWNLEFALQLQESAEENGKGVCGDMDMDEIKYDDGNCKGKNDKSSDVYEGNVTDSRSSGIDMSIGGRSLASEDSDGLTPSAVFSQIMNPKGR
RBOHD N-terminus (aa1-376) fused to cLuc (Q9FIJ0, residues 1-376): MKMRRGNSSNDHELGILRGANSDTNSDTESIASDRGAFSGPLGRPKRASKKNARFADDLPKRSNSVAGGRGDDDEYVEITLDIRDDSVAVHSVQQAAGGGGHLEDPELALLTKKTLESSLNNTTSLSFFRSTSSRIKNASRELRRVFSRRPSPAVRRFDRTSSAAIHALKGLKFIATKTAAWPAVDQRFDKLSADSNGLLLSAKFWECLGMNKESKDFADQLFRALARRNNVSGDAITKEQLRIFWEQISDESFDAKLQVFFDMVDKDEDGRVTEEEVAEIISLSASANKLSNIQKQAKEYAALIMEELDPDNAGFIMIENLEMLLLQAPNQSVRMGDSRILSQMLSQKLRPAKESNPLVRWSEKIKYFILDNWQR
MBP-RBOHD C-terminus (aa756-922) (Q9FIJ0, residues 756-921): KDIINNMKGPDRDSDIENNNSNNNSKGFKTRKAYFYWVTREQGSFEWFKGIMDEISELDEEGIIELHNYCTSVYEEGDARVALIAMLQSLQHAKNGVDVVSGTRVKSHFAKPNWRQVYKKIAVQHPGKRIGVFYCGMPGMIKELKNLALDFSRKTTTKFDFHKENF
UniProt P14713: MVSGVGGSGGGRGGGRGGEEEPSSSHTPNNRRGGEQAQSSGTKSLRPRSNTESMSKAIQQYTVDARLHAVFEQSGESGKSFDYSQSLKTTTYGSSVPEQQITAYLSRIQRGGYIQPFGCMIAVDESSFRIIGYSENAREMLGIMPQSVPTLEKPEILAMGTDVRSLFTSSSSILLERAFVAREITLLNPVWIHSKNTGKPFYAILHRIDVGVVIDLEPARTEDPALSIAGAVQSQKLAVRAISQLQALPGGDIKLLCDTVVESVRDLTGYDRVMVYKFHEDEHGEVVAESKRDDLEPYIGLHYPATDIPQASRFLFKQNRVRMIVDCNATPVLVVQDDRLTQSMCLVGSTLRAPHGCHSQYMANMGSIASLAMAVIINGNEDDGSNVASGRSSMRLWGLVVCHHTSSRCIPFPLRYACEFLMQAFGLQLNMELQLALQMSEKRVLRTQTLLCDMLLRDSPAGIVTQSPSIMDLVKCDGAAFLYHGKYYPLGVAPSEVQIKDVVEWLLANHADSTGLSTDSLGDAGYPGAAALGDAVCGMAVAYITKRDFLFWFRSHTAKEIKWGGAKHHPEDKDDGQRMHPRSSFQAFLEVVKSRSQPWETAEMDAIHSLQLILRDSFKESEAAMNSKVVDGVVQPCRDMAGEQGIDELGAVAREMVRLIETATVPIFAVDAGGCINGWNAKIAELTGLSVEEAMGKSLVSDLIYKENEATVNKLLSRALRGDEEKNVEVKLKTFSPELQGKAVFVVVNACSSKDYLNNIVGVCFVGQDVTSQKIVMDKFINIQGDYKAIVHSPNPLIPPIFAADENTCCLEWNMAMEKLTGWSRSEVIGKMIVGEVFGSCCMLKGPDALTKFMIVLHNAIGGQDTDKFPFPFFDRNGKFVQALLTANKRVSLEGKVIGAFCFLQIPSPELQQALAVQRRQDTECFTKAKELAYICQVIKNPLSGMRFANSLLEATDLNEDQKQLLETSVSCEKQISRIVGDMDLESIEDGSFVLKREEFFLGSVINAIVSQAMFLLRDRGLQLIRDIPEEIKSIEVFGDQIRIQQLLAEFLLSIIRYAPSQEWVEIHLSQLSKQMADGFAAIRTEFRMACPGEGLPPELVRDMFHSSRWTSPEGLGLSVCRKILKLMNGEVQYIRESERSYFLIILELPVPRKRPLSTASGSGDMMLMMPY

No constants are given. Whether binding was seen depends on the method and setting. Binding seen in cells or lysates may run through a third protein. Some entries that bind do so weakly or less than the wild type.

Test [1] deals with full length PIP2-6 fused to nLuc (Arabidopsis thaliana) (UniProt Q9ZV07). The test is described as follows: split reporter.
Test [2] addresses cytosolic domain of CRK10 (aa348-634) fused to nLuc (Arabidopsis thaliana) (UniProt Q8GYA4). The test can be described thus: split reporter.
In test [3] the target is cytosolic domain of FER (aa470-895) fused to nLuc (Arabidopsis thaliana) (UniProt Q9SCZ4). The test can be described thus: split reporter.
The target of test [4] is RBOHD N-terminus (aa1-376) fused to cLuc (Arabidopsis thaliana) (UniProt Q9FIJ0). The test is described as follows: split reporter.
Test [5] addresses RBOHD C-terminus (aa756-922) fused to cLuc (Arabidopsis thaliana) (UniProt Q9FIJ0). The test can be described thus: split reporter.
The target of test [6] is MBP-RBOHD C-terminus (aa756-922) (Arabidopsis thaliana) (UniProt Q9FIJ0). The test can be described thus: pull-down.
Test [7] has as its target MBP-RBOHD N-terminus (aa1-376) (Arabidopsis thaliana) (UniProt Q9FIJ0). The test is described as follows: pull-down.

“full length PhyB fused to cLuc (from UniProt P14713 1-1172)”: the binding result in test [1], in test [2] and in test [3] was “binds” each time.
On to “cytosolic domain of CRK10 (aa348-634) fused to nLuc (from UniProt Q8GYA4 348-634) (domain or fragment)”, for which the binding entry in test [4] is reported as “binds”.
As to “full length PhyB fused to nLuc (from UniProt P14713 1-1172)”, the binding result in test [4] and in test [5] was “binds” throughout.
Take “HA-phyB (full length PhyB with N-terminal 3x-HA) (from UniProt P14713 1-1172)”: the binding result in test [6] and in test [7] was “binds” in each case.
Turning to “cytosolic domain of FER (aa470-895) fused to nLuc (from UniProt Q9SCZ4 470-895) (domain or fragment)”, the binding result in test [4] is given as “binds”.
